In article doi:10.1101/2023.02.08.527750:
Like-named read-outs stand apart in the source and are kept apart here. These are yes or no findings as the source states them, for the method shown. In cells and extracts the contact can be indirect. A yes stands for co-enrichment or nearness to the bait. Other partners may have been found. Where a sequence is shown, tags or fusion partners need not be part of it.

By UniProt entry, the sequences of proteins in these tests, tags left out.
UniProt P15531: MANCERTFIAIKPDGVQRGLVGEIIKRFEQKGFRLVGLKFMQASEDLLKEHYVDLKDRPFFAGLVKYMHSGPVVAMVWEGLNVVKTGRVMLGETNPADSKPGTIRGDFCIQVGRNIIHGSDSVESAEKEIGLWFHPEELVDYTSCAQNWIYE
UniProt Q9Y265: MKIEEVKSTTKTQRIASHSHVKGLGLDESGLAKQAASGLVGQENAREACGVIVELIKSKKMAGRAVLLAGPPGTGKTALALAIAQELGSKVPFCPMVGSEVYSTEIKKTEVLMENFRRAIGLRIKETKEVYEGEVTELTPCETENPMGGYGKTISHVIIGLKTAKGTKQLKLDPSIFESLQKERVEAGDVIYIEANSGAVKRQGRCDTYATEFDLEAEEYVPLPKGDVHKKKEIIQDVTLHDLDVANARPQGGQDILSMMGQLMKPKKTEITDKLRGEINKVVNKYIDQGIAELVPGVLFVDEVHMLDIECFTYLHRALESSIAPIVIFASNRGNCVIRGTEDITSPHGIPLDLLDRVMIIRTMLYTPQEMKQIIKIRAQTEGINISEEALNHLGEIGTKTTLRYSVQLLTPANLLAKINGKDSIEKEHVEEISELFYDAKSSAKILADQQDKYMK

T1: ITFG1-Myc (full-length ITFG1 with a Myc tag at the C-terminal) (human) (UniProt Q8TB96)
T1 sequence: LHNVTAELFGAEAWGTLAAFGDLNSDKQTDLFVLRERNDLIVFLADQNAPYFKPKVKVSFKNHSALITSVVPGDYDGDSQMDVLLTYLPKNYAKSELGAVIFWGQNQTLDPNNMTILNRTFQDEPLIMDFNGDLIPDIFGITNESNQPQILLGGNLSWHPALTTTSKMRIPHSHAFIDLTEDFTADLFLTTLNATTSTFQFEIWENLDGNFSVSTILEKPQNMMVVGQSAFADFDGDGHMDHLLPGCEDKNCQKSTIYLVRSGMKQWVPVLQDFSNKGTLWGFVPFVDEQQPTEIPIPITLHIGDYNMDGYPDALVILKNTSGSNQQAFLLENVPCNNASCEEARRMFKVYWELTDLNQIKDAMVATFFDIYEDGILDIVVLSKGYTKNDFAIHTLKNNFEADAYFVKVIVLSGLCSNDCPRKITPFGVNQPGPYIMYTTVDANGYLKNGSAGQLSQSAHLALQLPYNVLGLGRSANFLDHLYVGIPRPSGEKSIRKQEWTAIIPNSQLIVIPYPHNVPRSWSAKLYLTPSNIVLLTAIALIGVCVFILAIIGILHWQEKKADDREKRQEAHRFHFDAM


Legend:
[1] = biological target: T1, ITFG1-Myc (full-length ITFG1 with a Myc tag at the C-terminal) (human); test: affinity purification with mass spectrometry
[2] = biological target: T1, ITFG1-Myc (full-length ITFG1 with a Myc tag at the C-terminal) (human); test: affinity purification with mass spectrometry; remark: listed apart in the source

Molecule | binding [1] | binding [2]
NME1 (endogenous) (from UniProt P15531 1-152) | binds | 
ATP9A (endogenous) (protein, UniProt O75110 1-1047) MTDNIPLQPVRQKKRMDSRPRAGCCEWLRCCGGGEARPRTVWLGHPEKRDQRYPRNVINNQKYNFFTFLPGVLFNQFKYFFNLYFLLLACSQFVPEMRLGALYTYWVPLGFVLAVTVIREAVEEIRCYVRDKEVNSQVYSRLTARGTVKVKSSNIQVGDLIIVEKNQRVPADMIFLRTSEKNGSCFLRTDQLDGETDWKLRLPVACTQRLPTAADLLQIRSYVYAEEPNIDIHNFVGTFTREDSDPPISESLSIENTLWAGTVVASGTVVGVVLYTGRELRSVMNTSNPRSKIGLFDLEVNCLTKILFGALVVVSLVMVALQHFAGRWYLQIIRFLLLFSNIIPISLRVNLDMGKIVYSWVIRRDSKIPGTVVRSSTIPEQLGRISYLLTDKTGTLTQNEMIFKRLHLGTVAYGLDSMDEVQSHIFSIYTQQSQDPPAQKGPTLTTKVRRTMSSRVHEAVKAIALCHNVTPVYESNGVTDQAEAEKQYEDSCRVYQASSPDEVALVQWTESVGLTLVGRDQSSMQLRTPGDQILNFTILQIFPFTYESKRMGIIVRDESTGEITFYMKGADVVMAGIVQYNDWLEEECGNMAREGLRVLVVAKKSLAEEQYQDFEARYVQAKLSVHDRSLKVATVIESLEMEMELLCLTGVEDQLQADVRPTLETLRNAGIKVWMLTGDKLETATCTAKNAHLVTRNQDIHVFRLVTNRGEAHLELNAFRRKHDCALVISGDSLEVCLKYYEYEFMELACQCPAVVCCRCAPTQKAQIVRLLQERTGKLTCAVGDGGNDVSMIQESDCGVGVEGKEGKQASLAADFSITQFKHLGRLLMVHGRNSYKRSAALSQFVIHRSLCISTMQAVFSSVFYFASVPLYQGFLIIGYSTIYTMFPVFSLVLDKDVKSEVAMLYPELYKDLLKGRPLSYKTFLIWVLISIYQGSTIMYGALLLFESEFVHIVAISFTSLILTELLMVALTIQTWHWLMTVAELLSLACYIASLVFLHEFIDVYFIATLSFLWKVSVITLVSCLPLYVLKYLRRRFSPPSYSKLTS |  | binds

Now from value to molecule:

binding [1] | binding [2] | Molecule
binds |  | RUVBL1 (endogenous) (from UniProt Q9Y265 1-456)
 | binds | NME4 (endogenous) (protein, UniProt O00746 29-187) GSGGPSWTRERTLVAVKPDGVQRRLVGDVIQRFERRGFTLVGMKMLQAPESVLAEHYQDLRRKPFYPALIRYMSSGPVVAMVWEGYNVVRASRAMIGHTDSAEAAPGTIRGDFSVHISRNVIHASDSVEGAQREIQLWFQSSELVSWADGGQHSSIHPA
